Among all 52,000 sequences or so, about 210 (0.4%) were called active.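 Rule for the calls: active = gene whose silencing raises cell survival under the drug, median off-target-corrected z-score across its silencing RNAs 2 or more; inactive = the rest.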 This is one part of the list.

The nature of this assay: Resistance to Poly (ADP-Ribose) Polymerase inhibitor: Gene Identification via Genome-wide siRNA Screen. The conditions noted are these: mouse BRCA2 R2336H ES cells, olaparib, CellTiter-Glo viability; hits give high values. The procedure, abridged: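 Genome-wide siRNA screen (3 siRNAs/gene, 20 nM) in mouse ES cells carrying hypomorphic BRCA2 R2336H; olaparib 500 nM added 48 h post-transfection, CellTiter-Glo viability 72 h later. Normalized to plate-median negative control; MAD z-scores, gene median, seed-adjusted.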
Turning to “GGACUAGAAUAUCACAACGTT against 4932408B21Rik”, the z-score is inactive: 0.811. With CCUUGUCAUUGCACUCCAATT against Tm6sf2, the z-score was inactive: -0.379. Consider GGCAACCAUUAAAUGUUUATT against Trim59, for which the z-score is inactive: -0.819. To “GGAGAAAGAAACUCUCAGATT against 2610301B20Rik” belongs inactive: -0.939; to GGAAGAGUCUAAUUAAAGGTT against Rab27b, inactive: 0.02.

As to GCUUGAUCAACAAGUGGAGTT against Nup62, the z-score was inactive: -1.64. GGAUGGUGAUAAAAACAACTT against Tnnc2: the z-score is inactive: 0.227. To GGAGAACUUUUUGAUAGAATT against Chek1 belongs inactive: -0.512. For “GGGUCUGCGUGACAAUUACTT against 4930542C12Rik”, the z-score is inactive: 0.697. With GGAGAAAAAGUUACGUCGATT against Stk38l, the z-score was inactive: -0.502. Then GGAUGUGACCCACUUUAUATT against Zhx3, with inactive: 1.91; and GGUUACAAAUGAUUGUUCATT against Phxr2, with inactive: -0.694.

As to GGCCUUCAACAUUGACCGATT against Kcnc4, the z-score is inactive: 0.13. To GGUGACUUUCUGAAACUCCTT against Hoxa5 belongs inactive: 1.39. Take GGCUAAGCAACUCUUUCGATT against Sec22l1: the z-score was inactive: 0.655. To GGCCUCAUGAAGAACCUUCTT against Pparg belongs inactive: 0.0186. As for GCUGGUAUACAGAAUAAACTT against Mfn1, the z-score was inactive: -0.145. Then GGUUUAAUAGACGACAAUGTT against Ube2g1, with inactive: -0.676; and GGAAAUCUUUGAGUUUGAATT against Clca3, with inactive: 2; and GGCCCACCUAUUUCAUCUCTT against Actl7b, with inactive: 0.808.

GGUUGUGACUUCUCAUUUUTT against Ccnb1: the z-score is inactive: -0.703. Then GGAAGAUAAUGGGAAUUUCTT against Acp2, with inactive: 0.839. To GGGCUACAUUCCUUCCAAUTT against Frk belongs inactive: -2.18; to CCUCCCAAGUAAAUUAUUATT against AW210596, inactive: -0.551; to “GCUGUUUGAACUCGCCCGATT against C330016O16Rik”, inactive: 0.214. To GGAAAGUUUACACUAAAAGTT against Copeb belongs inactive: 0.575; to GGAGAUUGCUAAUAGCUGUTT against Cldn15, inactive: 1.53. As to CCUAUAUAAACACUCGAAATT against Zbtb5, the z-score is inactive: -0.185. In the case of GGGAGUAGAGAUCAAAGGCTT against H2-Bf, the z-score was inactive: -0.762. To GGCAGACAUCACAAUGGCUTT against Hemgn belongs inactive: 2.61; to CGAUGUUGUAAAUAAUGCATT against Cai, inactive: -0.428; to “GCCCUGCACCAGAAAAACATT against 2310004N11Rik”, inactive: -0.441.

Regarding GUUUCUGGAGACGGUGGAGTT against Rpl10a, the z-score is inactive: -2.29. To GGUAAAGGAUGCUUUUAAGTT against Olfr801 belongs inactive: 1.45.

Turning to GGAGUCCUAAAGAGUUCUATT against Slc11a1, the z-score is inactive: -0.278. With CCUACUAGUGCAUUUGUAATT against Gabarapl2, the z-score is inactive: 1.66.

For the sequence GGUAACGAUGCUGGAAUUCTT against Sdcbp, the z-score is inactive: -1.68. With CCCAGGUUGACAAGAACUCTT against Socs7, the z-score is inactive: -0.289. As to GGUAAAGGUAAACUUAUACTT against V1rd14, the z-score is inactive: 1.14. Turning to GGACAGAAUGGAAAUUCUUTT against Efna2, the z-score is inactive: -0.312. Then GGCAGUGGAGUGUAUGGAUTT against Popdc2, with inactive: -1.38. Then GGAAGAAGAUGGAGAUAAATT against Neurod4, with inactive: -0.296; and GGAAUUUGCUGAAUUUAGUTT against Jmjd2c, with inactive: 0.638. To “GCGCAGAACCCAGAUGAAGTT against 1110005F07Rik” belongs inactive: 0.994. For CGUAAGUGGACGACGGUUCTT against Kcnd3, the z-score was inactive: -1.19. Then GGAAGUUUCCCAUCAGUGATT against Cryab, with inactive: -0.396. GGGUGACCUUUUGUUUUUATT against Cfl2: the z-score was inactive: 1.39. On to GGGCCUUACGUCAUUCUCUTT against Dnajb7, for which the z-score was inactive: 0.5. As to GGAGUUACCUGGAUAUUAUTT against Car8, the z-score was inactive: 0.398.

For “GGACCUAUUACACACUUGUTT against 2310020P08Rik”, the z-score was inactive: 1. With GGGCAGGAACAAAAGAAGCTT against Dsc1, the z-score is inactive: 0.932. Regarding GGACAAGCAAGAAGGAAUUTT against Polr2j, the z-score is inactive: -2.77. As for GGUAGAAGUGAAAAAGAUATT against Bhmt, the z-score is inactive: -0.359. “GGCACAGAUUGUGGUGAAGTT against D11Ertd707e”: the z-score was inactive: -2.74.

Consider GGAUGAACAACAAUCAAACTT against Btrc, for which the z-score was inactive: -0.247.

For “GCUAACGAAGGUAGUGUACTT against 0610037H22Rik”, the z-score is inactive: -0.92. For GGUAAGUCCUAACAAACAATT against Nxph2, the z-score was inactive: 3.68. On to “AGGUAGAAAAACAAUACCGTT against 1200009F10Rik”, for which the z-score is inactive: 0.97. To “GGGUCAGCCAAAGGAAAAUTT against D230007K08Rik” belongs inactive: -0.399; to GGUUUACAGCACCAAGAUCTT against Itih3, inactive: 0.543; to GGAGUACUAAGUCCAUUCCTT against Tuba2, inactive: 1.46.

As for UUAACUACAAUCCAUCACUTT against Dscr1l1, the z-score was inactive: -0.33. In the case of GGACCUGUACAAAAAGGGATT against Mag, the z-score is inactive: 1.97.

On to “GGUGACUUGCUUUAGAAAATT against 2600017J23Rik”, for which the z-score is inactive: 0.703. Then GGAGGAAUUUCUUAAGCUUTT against Ivns1abp, with inactive: -0.246. To CCUGAUCCUCAGUUUGGUGTT against Prl belongs inactive: -0.52. To “GGAACUGCUAAGAGAGAAATT against 1810060J02Rik” belongs inactive: -0.725.
